Source: US20110217202A1, “ACTIVE OXYGEN DISINFECTION SYSTEM AND USE THEREOF” (priority 2010, published 2011)

How the values were obtained:
[1] = Uptake of photosensitizers by contact lenses (Example 3); details: 10 μg/mL photosensitizer, lenses submerged overnight; for UV/Vis (uptake by lens): UV spectrometry against blank lens
[2] = as above; details: 10 μg/mL photosensitizer, lenses submerged overnight; for UV/Vis (uptake by lens): UV spectrometry against blank lens; remark: listed apart in the source

Structure (SMILES) | Visual (color change of the lens) [1] | UV/Vis (uptake by lens) [1] | Visual (color change of the lens) [2] | UV/Vis (uptake by lens) [2]
Cc1cc2nc3ccc(N(C)C)cc3[s+]c2cc1N.[Cl-] [TBO, Toluidine Blue O] | Slightly | 2.84 µg | Highly visible | 8.45 µg
C[n+]1ccc(-c2c3nc(c(-c4cc[n+](C)cc4)c4ccc([nH]4)c(-c4cc[n+](C)cc4)c4nc(c(-c5cc[n+](C)cc5)c5ccc2[nH]5)C=C4)C=C3)cc1.Cc1ccc(S(=O)(=O)[O-])cc1.Cc1ccc(S(=O)(=O)[O-])cc1.Cc1ccc(S(=O)(=O)[O-])cc1.Cc1ccc(S(=O)(=O)[O-])cc1 [TMPyP, tetra(N-methyl-4-pyridyl)porphine tetratosylate] | invisible | 0 µg | Highly visible | 5.1 µg
